One substance from paper PMC9529403 can be followed below.

No constants are given. Whether binding was seen depends on the method and setting. Binding seen in cells or lysates may run through a third protein. Some entries that bind do so weakly or less than the wild type.

The test concerns the target P53 (human (endogenous in Ishikawa)) (UniProt P04637). Description: co-IP; Ishikawa cell lysate (SNORD15B plasmid or empty vector), precleared with magnetic beads, 1 mg protein with 4 ug anti-P53 antibody or IgG overnight at 4°C, magnetic beads; blot probed with anti-TRIM25.

For the substance TRIM25 (from UniProt Q14258 1-630), the binding result is “binds”.
